This is one part of the list.
How the values were obtained:
Assay in all cases: log2 fold change, soluble protein after heating vs DMSO (PISA); higher = thermal stabilisation; K562 lysate, 10 uM; active = over 0.2 and 3.5 SD of the protein, either way, in both replicates (recomputed)
[1] = compound: Cc1cn(-c2cc(NC(=O)c3ccc(C)c(Nc4nccc(-c5cccnc5)n4)c3)cc(C(F)(F)F)c2)cn1 [nilotinib]
Procedure, shortened: (§1)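 The values are log-two fold changes in thermal stability compared with solvent controls and come from duplicates. They were obtained by TMTpro 16plex LC-MS/MS, with channel sums equalised, on the supernatant after 21,000xg for 90 min. That supernatant came from crude K562 extract at 1 mg/mL protein treated with 10 μM compound for 30 min, heated for 3 min across 48°C-58°C, pooled and brought to 0.5% NP-40 at 4°C.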

The chains behind the UniProt entries cited, without tags or fusion partners. Where a name states a change or a piece, a line headed by the entry shows the natural chain unless it says otherwise.
UniProt P07864: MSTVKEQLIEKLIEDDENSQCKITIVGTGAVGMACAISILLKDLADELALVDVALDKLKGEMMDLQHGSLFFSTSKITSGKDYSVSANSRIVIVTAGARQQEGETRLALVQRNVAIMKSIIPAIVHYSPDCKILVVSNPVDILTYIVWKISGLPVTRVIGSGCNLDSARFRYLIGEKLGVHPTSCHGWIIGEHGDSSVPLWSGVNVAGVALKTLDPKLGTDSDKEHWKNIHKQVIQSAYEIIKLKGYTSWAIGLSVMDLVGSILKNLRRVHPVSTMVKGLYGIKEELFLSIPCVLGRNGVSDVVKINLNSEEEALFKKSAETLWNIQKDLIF
UniProt P20700: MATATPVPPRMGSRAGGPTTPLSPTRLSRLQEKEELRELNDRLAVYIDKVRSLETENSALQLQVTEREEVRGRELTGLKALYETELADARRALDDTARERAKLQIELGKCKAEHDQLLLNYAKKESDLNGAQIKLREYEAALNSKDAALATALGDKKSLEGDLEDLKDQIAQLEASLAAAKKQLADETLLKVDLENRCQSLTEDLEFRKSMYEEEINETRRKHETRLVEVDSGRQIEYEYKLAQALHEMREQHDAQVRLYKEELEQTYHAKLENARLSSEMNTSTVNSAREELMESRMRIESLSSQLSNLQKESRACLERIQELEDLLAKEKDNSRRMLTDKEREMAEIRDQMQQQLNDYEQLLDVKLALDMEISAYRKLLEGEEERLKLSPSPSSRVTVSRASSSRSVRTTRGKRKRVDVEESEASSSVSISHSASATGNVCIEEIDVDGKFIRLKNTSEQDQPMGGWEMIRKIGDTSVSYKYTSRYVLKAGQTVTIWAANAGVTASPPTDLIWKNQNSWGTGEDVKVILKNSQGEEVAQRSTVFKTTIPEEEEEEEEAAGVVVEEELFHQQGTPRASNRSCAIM
UniProt Q8ND56: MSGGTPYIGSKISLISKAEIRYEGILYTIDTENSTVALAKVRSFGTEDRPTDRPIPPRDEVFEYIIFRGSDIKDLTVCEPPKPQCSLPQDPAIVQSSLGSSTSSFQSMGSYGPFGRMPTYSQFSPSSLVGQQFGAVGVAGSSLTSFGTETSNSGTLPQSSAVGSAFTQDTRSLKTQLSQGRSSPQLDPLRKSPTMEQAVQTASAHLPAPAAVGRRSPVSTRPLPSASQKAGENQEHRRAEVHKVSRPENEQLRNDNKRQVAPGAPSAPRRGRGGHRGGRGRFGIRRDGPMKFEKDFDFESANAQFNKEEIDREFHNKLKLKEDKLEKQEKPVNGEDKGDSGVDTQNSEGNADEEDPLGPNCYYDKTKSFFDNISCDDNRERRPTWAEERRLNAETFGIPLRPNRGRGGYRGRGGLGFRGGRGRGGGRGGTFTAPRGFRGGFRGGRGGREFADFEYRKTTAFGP
UniProt Q6UWE0: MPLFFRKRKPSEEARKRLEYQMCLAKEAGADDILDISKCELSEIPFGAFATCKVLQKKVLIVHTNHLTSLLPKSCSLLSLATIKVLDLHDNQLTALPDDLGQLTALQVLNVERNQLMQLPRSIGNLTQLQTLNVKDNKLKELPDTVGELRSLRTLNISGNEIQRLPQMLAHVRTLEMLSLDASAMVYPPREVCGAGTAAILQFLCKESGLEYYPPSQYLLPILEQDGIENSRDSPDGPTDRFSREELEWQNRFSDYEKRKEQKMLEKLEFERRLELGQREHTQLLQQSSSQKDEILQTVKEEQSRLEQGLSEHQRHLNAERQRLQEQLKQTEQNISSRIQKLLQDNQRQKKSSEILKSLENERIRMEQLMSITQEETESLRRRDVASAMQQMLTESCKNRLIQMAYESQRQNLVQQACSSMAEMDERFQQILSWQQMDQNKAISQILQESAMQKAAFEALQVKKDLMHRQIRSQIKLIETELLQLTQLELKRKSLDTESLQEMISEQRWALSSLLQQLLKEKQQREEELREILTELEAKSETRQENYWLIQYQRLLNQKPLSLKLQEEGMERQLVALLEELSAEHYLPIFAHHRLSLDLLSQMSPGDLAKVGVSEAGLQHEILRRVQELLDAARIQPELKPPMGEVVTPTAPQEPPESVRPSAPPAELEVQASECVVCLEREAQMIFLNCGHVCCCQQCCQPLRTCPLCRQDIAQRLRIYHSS
UniProt Q92604: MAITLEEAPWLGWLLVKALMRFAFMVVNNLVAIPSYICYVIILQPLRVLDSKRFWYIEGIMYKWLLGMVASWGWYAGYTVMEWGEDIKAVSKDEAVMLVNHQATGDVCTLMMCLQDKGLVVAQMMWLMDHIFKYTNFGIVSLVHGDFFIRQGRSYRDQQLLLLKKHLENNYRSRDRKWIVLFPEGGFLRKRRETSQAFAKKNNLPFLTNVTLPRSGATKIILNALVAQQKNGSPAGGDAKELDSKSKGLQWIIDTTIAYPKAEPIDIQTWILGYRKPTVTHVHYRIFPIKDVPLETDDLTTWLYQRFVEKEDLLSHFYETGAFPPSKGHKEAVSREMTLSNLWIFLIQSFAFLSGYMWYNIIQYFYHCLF
UniProt P30533, whole entry, looked up: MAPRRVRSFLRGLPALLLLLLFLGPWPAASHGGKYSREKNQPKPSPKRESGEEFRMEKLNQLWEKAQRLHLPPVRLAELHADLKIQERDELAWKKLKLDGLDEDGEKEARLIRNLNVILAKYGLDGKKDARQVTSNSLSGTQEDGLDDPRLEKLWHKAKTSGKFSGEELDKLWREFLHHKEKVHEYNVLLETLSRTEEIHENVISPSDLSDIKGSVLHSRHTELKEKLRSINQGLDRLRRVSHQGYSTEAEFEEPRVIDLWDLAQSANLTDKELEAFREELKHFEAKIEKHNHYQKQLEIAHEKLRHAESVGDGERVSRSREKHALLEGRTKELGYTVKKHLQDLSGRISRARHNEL
UniProt Q86U70: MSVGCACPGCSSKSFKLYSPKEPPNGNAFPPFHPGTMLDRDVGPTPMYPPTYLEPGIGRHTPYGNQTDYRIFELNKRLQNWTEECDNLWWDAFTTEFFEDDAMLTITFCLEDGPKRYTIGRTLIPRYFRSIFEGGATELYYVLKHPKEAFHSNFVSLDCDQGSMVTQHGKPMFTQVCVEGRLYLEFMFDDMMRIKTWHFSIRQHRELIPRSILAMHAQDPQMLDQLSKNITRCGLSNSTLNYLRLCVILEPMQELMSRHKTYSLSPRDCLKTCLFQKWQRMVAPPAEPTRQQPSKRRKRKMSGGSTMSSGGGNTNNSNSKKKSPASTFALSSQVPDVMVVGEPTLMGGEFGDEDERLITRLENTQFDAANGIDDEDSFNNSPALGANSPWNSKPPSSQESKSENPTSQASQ
UniProt Q9Y2L9: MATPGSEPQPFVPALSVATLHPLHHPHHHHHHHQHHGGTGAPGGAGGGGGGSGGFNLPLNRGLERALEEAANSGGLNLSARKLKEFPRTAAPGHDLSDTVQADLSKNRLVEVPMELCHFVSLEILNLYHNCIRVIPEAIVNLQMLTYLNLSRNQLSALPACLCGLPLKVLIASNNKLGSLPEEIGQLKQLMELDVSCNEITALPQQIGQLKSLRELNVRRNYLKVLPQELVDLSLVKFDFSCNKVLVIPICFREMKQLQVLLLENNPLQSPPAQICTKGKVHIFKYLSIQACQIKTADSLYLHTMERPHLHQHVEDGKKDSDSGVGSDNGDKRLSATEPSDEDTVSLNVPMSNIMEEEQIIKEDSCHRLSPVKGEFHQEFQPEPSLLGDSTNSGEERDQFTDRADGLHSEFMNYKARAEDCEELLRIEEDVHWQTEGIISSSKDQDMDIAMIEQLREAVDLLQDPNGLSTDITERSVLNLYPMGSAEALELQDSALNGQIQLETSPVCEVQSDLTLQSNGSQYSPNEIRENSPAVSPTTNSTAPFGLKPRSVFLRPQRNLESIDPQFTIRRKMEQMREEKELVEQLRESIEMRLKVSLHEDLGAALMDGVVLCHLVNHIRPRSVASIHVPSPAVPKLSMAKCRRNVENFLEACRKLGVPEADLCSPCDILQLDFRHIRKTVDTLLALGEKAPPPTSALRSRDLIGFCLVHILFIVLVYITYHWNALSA
UniProt Q7L5N7: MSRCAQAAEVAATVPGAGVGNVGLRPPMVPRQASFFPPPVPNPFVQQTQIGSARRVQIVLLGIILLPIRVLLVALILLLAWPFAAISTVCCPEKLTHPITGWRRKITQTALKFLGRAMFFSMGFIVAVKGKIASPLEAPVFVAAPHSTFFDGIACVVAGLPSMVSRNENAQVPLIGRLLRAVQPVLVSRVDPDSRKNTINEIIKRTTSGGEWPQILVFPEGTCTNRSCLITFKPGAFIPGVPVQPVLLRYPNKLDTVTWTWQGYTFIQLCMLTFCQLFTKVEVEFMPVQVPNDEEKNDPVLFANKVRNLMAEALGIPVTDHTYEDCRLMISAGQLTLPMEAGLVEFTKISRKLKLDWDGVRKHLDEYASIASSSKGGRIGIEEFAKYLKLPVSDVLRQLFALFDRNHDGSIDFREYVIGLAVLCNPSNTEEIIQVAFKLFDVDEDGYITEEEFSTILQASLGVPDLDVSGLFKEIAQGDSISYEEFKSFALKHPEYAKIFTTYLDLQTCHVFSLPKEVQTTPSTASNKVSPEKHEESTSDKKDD
UniProt Q5SW96: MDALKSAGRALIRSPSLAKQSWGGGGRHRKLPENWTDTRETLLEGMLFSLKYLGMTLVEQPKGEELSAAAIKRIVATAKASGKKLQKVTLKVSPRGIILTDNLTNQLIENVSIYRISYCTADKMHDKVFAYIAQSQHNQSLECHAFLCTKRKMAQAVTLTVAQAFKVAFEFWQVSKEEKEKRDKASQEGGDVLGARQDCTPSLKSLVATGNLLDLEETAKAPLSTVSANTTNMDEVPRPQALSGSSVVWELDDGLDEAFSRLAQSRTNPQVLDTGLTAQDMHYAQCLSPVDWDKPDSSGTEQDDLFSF
UniProt Q86VQ0: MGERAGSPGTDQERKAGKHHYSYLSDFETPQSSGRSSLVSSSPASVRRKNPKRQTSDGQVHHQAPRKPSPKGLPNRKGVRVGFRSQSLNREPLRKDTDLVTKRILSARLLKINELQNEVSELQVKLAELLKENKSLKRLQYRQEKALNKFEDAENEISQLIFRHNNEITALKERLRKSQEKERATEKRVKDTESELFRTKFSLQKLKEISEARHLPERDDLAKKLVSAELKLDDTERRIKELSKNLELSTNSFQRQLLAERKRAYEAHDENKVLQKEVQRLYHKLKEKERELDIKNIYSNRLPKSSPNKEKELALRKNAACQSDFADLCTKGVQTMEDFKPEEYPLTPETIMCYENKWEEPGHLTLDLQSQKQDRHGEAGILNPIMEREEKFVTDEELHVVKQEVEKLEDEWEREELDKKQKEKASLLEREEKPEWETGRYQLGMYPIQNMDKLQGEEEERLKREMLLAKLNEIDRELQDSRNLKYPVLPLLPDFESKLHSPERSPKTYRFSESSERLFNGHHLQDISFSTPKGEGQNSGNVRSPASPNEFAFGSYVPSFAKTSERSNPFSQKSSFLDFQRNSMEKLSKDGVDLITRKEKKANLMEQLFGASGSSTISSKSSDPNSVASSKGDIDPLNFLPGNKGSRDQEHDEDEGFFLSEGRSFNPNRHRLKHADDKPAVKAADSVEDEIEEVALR
UniProt Q96AG4: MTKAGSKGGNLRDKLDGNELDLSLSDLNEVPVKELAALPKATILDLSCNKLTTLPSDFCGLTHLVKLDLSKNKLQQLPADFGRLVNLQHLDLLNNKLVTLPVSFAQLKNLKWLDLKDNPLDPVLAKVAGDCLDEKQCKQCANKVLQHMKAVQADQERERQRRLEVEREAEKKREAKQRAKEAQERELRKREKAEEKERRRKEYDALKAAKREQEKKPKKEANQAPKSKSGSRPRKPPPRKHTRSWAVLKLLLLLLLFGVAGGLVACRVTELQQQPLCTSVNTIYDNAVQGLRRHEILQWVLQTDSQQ
UniProt Q96CN5: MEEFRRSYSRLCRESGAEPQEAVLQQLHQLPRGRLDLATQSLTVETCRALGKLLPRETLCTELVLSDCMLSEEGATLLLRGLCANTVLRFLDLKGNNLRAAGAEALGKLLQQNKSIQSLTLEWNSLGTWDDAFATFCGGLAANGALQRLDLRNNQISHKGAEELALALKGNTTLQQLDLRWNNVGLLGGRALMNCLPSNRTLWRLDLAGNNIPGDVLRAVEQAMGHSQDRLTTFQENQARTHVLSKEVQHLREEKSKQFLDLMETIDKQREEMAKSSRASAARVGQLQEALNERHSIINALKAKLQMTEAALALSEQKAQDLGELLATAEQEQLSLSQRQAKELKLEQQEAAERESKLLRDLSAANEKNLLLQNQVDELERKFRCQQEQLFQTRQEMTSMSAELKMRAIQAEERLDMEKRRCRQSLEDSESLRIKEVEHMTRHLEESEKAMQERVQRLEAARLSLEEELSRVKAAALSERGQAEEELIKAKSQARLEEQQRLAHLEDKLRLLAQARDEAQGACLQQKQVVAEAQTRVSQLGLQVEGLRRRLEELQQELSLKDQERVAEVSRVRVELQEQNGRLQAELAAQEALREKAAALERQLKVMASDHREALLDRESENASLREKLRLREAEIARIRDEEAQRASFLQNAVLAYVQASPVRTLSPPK

[2] = compound: Cc1nc(Nc2n[nH]c3c2CN(C(=O)N[C@H](CN(C)C)c2ccccc2)C3(C)C)c2sccc2n1
Procedure, shortened: as §1

[3] = compound: Cc1nc(Nc2ncc(C(=O)Nc3c(C)cccc3Cl)s2)cc(N2CCN(CCO)CC2)n1 [dasatinib]
Procedure, shortened: as §1

[4] = compound: Cc1ncc(-c2ccnc(Nc3ccc(S(C)(=O)=O)cc3)n2)n1C(C)C
Procedure, shortened: as §1

[5] = compound: Cn1cc(-c2ccc3c(c2)CCN3C(=O)Cc2cccc(C(F)(F)F)c2)c2c(N)ncnc21
Procedure, shortened: as §1

[6] = compound: Cn1cncc1[C@@](N)(c1ccc(Cl)cc1)c1ccc2c(c1)c(-c1cccc(Cl)c1)cc(=O)n2C [tipifarnib]
Procedure, shortened: as §1

[7] = compound: NC(=O)c1cnc(N[C@@H]2CCCC[C@@H]2N)nc1Nc1cccc(-n2nccn2)c1
Procedure, shortened: as §1

[8] = compound: NC1(c2ccc(-c3nc4ccn5c(=O)[nH]nc5c4cc3-c3ccccc3)cc2)CCC1
Procedure, shortened: as §1

[9] = compound: NCC(=O)Nc1ccc(-n2nc(C(F)(F)F)cc2-c2ccc3c(ccc4ccccc43)c2)cc1
Procedure, shortened: as §1

[10] = compound: O=C(CCCCCCC(=O)Nc1ccccc1)NO [vorinostat]
Procedure, shortened: as §1

[11] = compound: O=C(O)c1ccc2c(c1)nc(Nc1cccc(Cl)c1)c1ccncc12 [silmitasertib]
Procedure, shortened: as §1

[12] = compound: c1cn2cc(-c3ccc4cn[nH]c4c3)nc(Nc3ccc(N4CCOCC4)cc3)c2n1 [entospletinib]
Procedure, shortened: as §1

[13] = compound: Cn1cc(CNCC2CCN(c3ncc(C(=O)NO)cn3)CC2)c2ccccc21 [quisinostat]
Procedure, shortened: as §1

[14] = compound: NC(=O)Nc1cc(-c2cccc(F)c2)sc1C(=O)N[C@H]1CCCNC1
Procedure, shortened: as §1

[15] = compound: O=C1NC(=O)C(c2cnc3ccccn23)=C1c1cn2c3c(cc(F)cc13)CN(C(=O)N1CCCCC1)CC2
Procedure, shortened: as §1

Measured: log2 fold change

LDHC (UniProt P07864)
inactive: [1] 0.177 | [2] -0.016 | [3] 0.034 | [4] 0.04 | [5] -0.099 | [6] 0.01 | [7] 0.036 | [8] -0.079 | [9] 0.046 | [10] 0.1 | [11] -0.075 | [12] -0.014

LMNB1 (UniProt P20700)
inactive: [1] 0.039 | [2] 0.017 | [3] -0.025 | [4] 0.003 | [5] 0.028 | [13] -0.03 | [6] -0.03 | [14] -0.027 | [7] -0.004 | [8] 0.026 | [9] -0.01 | [10] 0.058 | [11] -0.007 | [15] 0.01 | [12] -0.024

LSM14A isoform 2 (UniProt Q8ND56)
inactive: [1] 0.028 | [2] 0.019 | [3] -0.002 | [4] -0.016 | [5] -0.052 | [13] -0.023 | [6] -0.024 | [14] -0.01 | [7] -0.022 | [8] 0.04 | [9] -0.071 | [10] -0.074 | [11] -0.02 | [15] -0.043 | [12] -0.018

LRSAM1 (UniProt Q6UWE0)
inactive: [1] 0.026 | [2] -0.01 | [3] 0.02 | [4] -0.006 | [5] 0.002 | [13] -0.013 | [6] 0 | [14] 0.011 | [7] 0.042 | [8] -0.009 | [9] 0.014 | [10] -0.047 | [11] 0.006 | [15] 0.017 | [12] 0.018

LPGAT1 (UniProt Q92604)
inactive: [1] 0.02 | [2] -0.044 | [3] 0.018 | [4] -0.056 | [5] -0.164 | [6] -0.063 | [8] 0.139 | [10] -0.058 | [11] -0.003 | [12] 0.147

LRPAP1 (UniProt P30533)
inactive: [1] -0.037 | [2] 0.001 | [3] 0.031 | [4] 0.031 | [5] 0.004 | [13] 0.092 | [6] 0.019 | [14] 0.001 | [7] 0.038 | [8] 0.01 | [9] 0.014 | [10] 0.117 | [11] -0.005 | [15] -0.035 | [12] -0.032

LIMK1 (UniProt P53667)
inactive: [1] -0.315 | [2] 0.008 | [3] 0.4 | [4] 0.031 | [5] 0.146 | [13] -0.145 | [6] 0.102 | [14] 0.126 | [7] 0.118 | [9] -0.127 | [15] 0.281 | [12] 0.027

LRRC8C (UniProt E9PHY6)
inactive: [1] -0.265 | [2] 0.032 | [4] -0.097 | [6] -0.06 | [8] 0.241 | [9] -0.003 | [10] -0.411 | [11] 0.034

LDB1 (UniProt Q86U70)
inactive: [1] 0.047 | [2] 0.04 | [3] 0.006 | [4] -0.04 | [5] 0.001 | [13] 0.043 | [6] -0.006 | [14] 0.022 | [7] -0.039 | [8] 0.02 | [9] 0.014 | [10] -0.054 | [11] -0.026 | [15] 0.036 | [12] -0.046

LRCH1 isoform 3 (UniProt Q9Y2L9)
inactive: [1] -0.264 | [2] -0.162 | [3] 0.044 | [4] 0.03 | [5] -0.1 | [6] 0.014 | [7] -0.127

LATS1 (UniProt O95835)
inactive: [1] -0.294 | [2] -0.114 | [3] -0.05 | [4] -0.047 | [5] 0.069 | [6] 0.082 | [8] -0.131 | [10] -0.242 | [11] 0.156

LPCAT2 (UniProt Q7L5N7)
inactive: [1] 0.108 | [2] 0.039 | [3] 0.181 | [4] -0.225 | [5] -0.103 | [13] -0.252 | [6] -0.079 | [14] 0.231 | [9] 0.007 | [15] -0.121 | [12] -0.031

LSM12 (UniProt Q3MHD2)
inactive: [1] -0.014 | [2] 0.002 | [3] -0.037 | [4] 0.03 | [5] -0.004 | [13] -0.003 | [6] -0.043 | [14] -0.013 | [7] 0.022 | [8] -0.017 | [9] 0.016 | [10] 0.031 | [11] -0.01 | [15] -0.007 | [12] -0.005

LDLRAP1 (UniProt Q5SW96)
inactive: [1] 0.03 | [2] 0.013 | [3] -0.008 | [4] 0.039 | [5] 0.004 | [13] -0.025 | [6] -0.071 | [14] -0.003 | [8] 0.04 | [9] -0.021 | [10] -0.18 | [11] -0.045 | [15] 0.059 | [12] 0.043

LCA5 (UniProt Q86VQ0)
inactive: [1] -0.069 | [2] 0.202 | [4] -0.109 | [13] 0.027 | [6] 0.035 | [14] -0.017 | [9] 0.095 | [15] -0.083 | [12] -0.024

Fetched one by one from the entries so far, two records:
LPCAT2 (UniProt Q7L5N7)
inactive: [1] 0.108 | [2] 0.039 | [3] 0.181 | [4] -0.225 | [5] -0.103 | [13] -0.252 | [6] -0.079 | [14] 0.231 | [9] 0.007 | [15] -0.121 | [12] -0.031

LDHC (UniProt P07864)
inactive: [1] 0.177 | [2] -0.016 | [3] 0.034 | [4] 0.04 | [5] -0.099 | [6] 0.01 | [7] 0.036 | [8] -0.079 | [9] 0.046 | [10] 0.1 | [11] -0.075 | [12] -0.014

Later entries:

LDHA (UniProt F5GZQ4)
inactive: [1] 0.024 | [2] -0.086 | [4] 0.23 | [6] 0.003 | [7] -0.207

LRRC59 (UniProt Q96AG4)
inactive: [1] 0.014 | [2] -0.006 | [3] -0.013 | [4] 0.011 | [5] -0.036 | [13] 0.058 | [6] -0.008 | [14] -0.057 | [7] -0.001 | [8] -0.014 | [9] -0.012 | [10] 0.124 | [11] 0.004 | [15] -0.008 | [12] 0.005

LDLR (UniProt P01130)
inactive: [1] 0.031 | [2] -0.009 | [3] 0.057 | [4] 0.082 | [5] -0.067 | [13] 0.012 | [6] -0.061 | [14] -0.06 | [7] -0.141 | [8] -0.042 | [9] 0.004 | [10] 0.052 | [11] -0.029 | [15] -0.007 | [12] 0.01

LRRC45 (UniProt Q96CN5)
inactive: [3] -0.197 | [5] -0.218

— the supplement of paper PMC10849652
